# Measured values published in the supplement of paper PMC10849652.
# Protein sequences, listed by entry. Tags and fused reporters are not part of them. Lines headed by an entry give the natural chain unless they say otherwise; changes in a name come on top.
# UniProt Q99549: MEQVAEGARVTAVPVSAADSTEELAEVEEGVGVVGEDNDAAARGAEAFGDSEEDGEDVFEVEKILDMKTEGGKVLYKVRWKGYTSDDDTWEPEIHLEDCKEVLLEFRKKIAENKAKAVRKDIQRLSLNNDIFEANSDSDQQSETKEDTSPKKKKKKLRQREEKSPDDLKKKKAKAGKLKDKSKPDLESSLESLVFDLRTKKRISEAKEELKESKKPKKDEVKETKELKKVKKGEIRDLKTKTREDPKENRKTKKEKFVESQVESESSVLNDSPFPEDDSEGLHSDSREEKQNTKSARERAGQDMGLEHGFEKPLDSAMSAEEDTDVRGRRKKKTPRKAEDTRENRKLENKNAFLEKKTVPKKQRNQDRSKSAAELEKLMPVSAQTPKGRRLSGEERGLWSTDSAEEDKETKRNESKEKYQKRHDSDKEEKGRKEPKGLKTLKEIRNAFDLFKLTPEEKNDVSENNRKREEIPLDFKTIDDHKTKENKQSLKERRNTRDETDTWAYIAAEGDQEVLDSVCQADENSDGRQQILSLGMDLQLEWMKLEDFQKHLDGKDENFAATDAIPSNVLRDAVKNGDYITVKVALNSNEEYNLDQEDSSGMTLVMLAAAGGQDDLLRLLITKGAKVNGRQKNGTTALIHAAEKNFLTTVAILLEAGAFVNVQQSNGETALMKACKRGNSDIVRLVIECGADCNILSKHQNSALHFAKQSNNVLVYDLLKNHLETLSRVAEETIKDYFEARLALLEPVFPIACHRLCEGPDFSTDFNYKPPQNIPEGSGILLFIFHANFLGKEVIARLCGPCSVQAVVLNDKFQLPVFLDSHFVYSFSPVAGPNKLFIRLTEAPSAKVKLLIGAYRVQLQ
# UniProt Q96BX8: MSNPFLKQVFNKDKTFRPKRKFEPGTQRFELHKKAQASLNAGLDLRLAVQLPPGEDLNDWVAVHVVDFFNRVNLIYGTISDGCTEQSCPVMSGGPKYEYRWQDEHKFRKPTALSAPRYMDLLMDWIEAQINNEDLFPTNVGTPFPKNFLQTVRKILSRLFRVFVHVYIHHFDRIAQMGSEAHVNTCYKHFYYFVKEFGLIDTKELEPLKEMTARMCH
# UniProt Q9H3L0: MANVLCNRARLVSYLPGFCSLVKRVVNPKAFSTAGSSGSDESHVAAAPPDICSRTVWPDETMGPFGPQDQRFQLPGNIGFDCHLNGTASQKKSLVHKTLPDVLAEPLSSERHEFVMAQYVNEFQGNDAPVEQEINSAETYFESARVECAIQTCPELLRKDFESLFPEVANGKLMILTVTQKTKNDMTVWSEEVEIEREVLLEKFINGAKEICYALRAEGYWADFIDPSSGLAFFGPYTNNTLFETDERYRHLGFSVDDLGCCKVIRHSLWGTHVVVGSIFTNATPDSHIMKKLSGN
# UniProt Q8N3F8: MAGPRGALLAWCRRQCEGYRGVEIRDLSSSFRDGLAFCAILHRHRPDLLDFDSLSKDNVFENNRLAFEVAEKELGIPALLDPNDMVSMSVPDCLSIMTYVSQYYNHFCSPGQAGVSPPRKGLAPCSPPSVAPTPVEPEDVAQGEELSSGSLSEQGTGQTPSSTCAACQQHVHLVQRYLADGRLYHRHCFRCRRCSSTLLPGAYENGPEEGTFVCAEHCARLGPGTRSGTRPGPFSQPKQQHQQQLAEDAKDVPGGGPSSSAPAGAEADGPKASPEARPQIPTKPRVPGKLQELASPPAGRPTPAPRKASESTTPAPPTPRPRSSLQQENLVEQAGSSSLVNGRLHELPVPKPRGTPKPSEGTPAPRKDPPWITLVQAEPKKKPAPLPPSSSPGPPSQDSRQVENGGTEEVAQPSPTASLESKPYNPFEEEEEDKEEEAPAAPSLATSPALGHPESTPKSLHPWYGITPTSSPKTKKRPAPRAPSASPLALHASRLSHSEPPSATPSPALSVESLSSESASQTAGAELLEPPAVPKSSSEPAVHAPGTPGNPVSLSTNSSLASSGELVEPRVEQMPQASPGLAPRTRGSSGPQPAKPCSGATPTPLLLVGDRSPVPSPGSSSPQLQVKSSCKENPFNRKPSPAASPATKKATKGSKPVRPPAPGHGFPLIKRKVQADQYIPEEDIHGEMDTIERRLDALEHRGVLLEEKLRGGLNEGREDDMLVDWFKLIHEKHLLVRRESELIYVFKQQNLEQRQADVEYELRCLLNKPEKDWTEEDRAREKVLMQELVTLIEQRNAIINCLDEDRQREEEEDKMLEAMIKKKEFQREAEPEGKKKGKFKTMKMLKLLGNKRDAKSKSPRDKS
# UniProt Q99583: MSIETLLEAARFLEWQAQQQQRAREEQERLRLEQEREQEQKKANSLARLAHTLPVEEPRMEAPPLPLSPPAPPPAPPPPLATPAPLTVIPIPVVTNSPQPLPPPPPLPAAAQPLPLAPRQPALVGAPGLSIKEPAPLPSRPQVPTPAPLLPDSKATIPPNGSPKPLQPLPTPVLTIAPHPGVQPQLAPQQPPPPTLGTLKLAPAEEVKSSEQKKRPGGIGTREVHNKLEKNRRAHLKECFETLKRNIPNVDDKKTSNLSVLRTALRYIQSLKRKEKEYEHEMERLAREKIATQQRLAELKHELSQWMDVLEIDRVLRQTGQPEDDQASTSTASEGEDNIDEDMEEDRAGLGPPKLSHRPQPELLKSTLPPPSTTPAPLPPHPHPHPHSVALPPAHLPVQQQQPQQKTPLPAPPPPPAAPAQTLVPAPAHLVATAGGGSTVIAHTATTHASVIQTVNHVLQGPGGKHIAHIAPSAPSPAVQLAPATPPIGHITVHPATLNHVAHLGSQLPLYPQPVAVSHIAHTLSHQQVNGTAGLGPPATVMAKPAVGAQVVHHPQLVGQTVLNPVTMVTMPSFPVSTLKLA
# UniProt Q9Y605: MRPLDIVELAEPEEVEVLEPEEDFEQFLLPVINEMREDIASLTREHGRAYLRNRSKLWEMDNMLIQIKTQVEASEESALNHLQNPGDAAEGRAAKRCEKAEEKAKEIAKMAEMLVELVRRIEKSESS
# UniProt Q9NPA3, whole entry, looked up: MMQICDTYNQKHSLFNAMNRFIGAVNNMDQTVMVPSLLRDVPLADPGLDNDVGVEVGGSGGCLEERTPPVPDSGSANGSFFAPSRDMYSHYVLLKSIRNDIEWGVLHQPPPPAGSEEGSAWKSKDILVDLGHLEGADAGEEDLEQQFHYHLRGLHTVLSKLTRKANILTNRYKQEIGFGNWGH
# UniProt Q86TA1: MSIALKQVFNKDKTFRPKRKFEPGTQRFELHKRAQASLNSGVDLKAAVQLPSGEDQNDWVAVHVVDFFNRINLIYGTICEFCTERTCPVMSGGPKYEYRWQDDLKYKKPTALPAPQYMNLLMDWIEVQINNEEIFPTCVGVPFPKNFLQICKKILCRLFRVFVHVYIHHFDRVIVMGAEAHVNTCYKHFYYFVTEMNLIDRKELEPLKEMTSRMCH
# UniProt Q86VX9: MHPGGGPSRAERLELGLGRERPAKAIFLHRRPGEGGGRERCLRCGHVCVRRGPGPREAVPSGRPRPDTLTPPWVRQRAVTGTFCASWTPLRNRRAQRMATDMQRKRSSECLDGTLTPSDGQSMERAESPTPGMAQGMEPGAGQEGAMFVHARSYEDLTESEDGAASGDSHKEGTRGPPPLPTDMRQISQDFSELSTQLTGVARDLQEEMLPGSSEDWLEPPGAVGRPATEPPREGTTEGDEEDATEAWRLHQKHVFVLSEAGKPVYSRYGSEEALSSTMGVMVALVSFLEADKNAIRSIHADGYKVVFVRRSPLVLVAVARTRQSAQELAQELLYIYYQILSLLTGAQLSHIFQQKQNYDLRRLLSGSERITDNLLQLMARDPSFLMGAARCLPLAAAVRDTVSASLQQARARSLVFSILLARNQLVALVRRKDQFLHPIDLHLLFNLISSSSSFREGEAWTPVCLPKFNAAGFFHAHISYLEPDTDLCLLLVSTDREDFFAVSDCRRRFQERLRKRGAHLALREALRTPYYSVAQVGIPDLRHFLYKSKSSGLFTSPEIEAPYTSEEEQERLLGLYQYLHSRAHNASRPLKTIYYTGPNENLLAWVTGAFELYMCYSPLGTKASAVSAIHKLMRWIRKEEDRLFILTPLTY
# UniProt Q95460, whole entry, looked up: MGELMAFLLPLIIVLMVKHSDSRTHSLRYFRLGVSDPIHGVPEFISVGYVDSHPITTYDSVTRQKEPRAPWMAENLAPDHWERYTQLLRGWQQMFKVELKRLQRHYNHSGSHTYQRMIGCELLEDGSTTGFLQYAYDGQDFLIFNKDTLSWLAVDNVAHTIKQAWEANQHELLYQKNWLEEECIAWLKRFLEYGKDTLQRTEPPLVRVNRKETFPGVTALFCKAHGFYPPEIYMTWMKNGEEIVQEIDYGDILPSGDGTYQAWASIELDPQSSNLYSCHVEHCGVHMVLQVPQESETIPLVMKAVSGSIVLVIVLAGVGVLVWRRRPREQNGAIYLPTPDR
# UniProt Q9BU76: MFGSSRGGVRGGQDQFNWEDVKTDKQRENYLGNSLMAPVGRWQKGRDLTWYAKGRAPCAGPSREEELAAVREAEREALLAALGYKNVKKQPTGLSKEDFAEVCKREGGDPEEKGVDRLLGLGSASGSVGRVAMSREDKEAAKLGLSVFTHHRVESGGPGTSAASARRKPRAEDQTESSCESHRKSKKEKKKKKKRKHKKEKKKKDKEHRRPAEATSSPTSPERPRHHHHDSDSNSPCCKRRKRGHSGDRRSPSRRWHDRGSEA
# UniProt Q6NTE8: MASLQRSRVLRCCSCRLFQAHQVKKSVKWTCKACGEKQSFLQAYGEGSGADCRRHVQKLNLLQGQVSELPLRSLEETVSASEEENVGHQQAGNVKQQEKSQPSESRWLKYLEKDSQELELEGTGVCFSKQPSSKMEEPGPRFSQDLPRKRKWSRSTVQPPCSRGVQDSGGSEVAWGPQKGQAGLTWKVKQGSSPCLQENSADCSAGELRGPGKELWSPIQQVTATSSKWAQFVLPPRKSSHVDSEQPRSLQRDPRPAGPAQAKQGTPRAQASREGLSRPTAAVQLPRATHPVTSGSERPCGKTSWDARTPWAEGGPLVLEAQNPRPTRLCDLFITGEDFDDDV
# UniProt Q8NB16: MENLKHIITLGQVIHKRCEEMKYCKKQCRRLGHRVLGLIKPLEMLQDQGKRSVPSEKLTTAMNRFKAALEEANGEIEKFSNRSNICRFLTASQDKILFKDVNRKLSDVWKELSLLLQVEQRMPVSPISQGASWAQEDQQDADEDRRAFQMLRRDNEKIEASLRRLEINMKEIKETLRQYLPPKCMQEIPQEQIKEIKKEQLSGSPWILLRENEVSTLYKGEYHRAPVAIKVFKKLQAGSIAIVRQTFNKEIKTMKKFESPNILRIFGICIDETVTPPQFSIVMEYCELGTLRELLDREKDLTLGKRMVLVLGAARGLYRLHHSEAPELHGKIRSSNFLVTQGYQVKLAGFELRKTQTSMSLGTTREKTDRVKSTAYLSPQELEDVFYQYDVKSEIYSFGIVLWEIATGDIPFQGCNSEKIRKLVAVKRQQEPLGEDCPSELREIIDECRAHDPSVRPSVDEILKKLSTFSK
# UniProt Q8TDZ2: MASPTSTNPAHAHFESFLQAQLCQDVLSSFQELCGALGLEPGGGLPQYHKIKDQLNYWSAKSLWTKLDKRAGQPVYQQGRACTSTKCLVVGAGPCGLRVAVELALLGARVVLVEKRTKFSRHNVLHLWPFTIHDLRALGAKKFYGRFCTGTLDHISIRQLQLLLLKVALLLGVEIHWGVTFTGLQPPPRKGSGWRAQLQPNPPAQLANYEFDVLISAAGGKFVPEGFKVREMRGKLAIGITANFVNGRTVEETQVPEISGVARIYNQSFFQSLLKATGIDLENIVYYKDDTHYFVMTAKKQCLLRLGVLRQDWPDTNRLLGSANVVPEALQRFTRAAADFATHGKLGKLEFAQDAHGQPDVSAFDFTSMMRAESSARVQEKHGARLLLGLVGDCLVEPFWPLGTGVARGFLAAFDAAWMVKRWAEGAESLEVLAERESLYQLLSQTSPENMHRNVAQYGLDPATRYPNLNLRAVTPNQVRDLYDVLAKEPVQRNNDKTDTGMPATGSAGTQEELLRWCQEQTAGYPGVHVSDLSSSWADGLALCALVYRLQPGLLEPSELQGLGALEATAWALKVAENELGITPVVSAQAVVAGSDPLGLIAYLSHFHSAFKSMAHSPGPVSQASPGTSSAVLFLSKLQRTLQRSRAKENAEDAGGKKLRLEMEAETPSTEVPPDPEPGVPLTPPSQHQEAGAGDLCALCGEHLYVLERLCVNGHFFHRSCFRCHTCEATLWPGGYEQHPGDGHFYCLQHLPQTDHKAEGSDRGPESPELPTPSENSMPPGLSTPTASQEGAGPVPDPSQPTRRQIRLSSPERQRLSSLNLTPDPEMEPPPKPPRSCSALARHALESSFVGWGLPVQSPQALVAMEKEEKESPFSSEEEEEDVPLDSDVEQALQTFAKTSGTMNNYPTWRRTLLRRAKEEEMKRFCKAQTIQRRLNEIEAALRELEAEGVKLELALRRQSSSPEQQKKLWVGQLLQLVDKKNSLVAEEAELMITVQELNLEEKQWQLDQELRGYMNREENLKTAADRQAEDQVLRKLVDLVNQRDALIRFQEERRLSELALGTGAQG
# UniProt Q9Y5U8: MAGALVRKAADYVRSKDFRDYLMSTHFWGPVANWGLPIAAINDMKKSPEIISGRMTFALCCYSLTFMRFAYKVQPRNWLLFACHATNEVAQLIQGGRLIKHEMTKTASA
# Some of the results follow.
# Compound: CC(C)N(C[C@H]1O[C@@H](n2cnc3c(N)ncnc32)[C@H](O)[C@@H]1O)[C@H]1C[C@@H](CCc2nc3cc(C(C)(C)C)ccc3[nH]2)C1 [pinometostat]
# Assay: log2 fold change, soluble protein after heating vs DMSO (PISA); higher = thermal stabilisation; K562 cells, 10 uM, 30 min; active = over 0.2 and 3.5 SD of the protein, either way, in both replicates (recomputed)
# In short: (§1)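 K562 cells at 2×10^6 cells/mL were treated for 30 min with 10 μM compound, and aliquots were heated for 3 min over 48°C-58°C before pooling. Extraction used PBS with 0.5% NP-40 at 4°C, and soluble protein was the supernatant after 21,000xg for 90 min, measured by TMTpro 16plex LC-MS/MS with channel sums equalised. Thermal stability values, relative to control samples and from duplicates, are log2 fold changes.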
row,Target,log2 fold change
1,MKRN1 (UniProt Q9UHC7),inactive: -0.058
2,MPHOSPH8 isoform 2 (UniProt Q99549),inactive: -0.027
3,MICAL2 (UniProt O94851),inactive: 0.014
4,MOB3A (UniProt Q96BX8),inactive: 0.012
5,MMADHC (UniProt Q9H3L0),inactive: 0.182
6,MICALL1 (UniProt Q8N3F8),inactive: 0.002
7,MNT (UniProt Q99583),inactive: 0.123
8,MKRN3 (UniProt Q13064),inactive: -0.078
9,MRPL42 (UniProt Q9Y6G3),inactive: 0.044
10,MRFAP1 (UniProt Q9Y605),inactive: -0.016
11,MRPL18 (UniProt Q9H0U6),inactive: 0.069
12,MID1IP1 (UniProt Q9NPA3),inactive: 0.041
13,MLLT11 (UniProt Q13015),inactive: 0.029
14,MOB3B (UniProt Q86TA1),inactive: -0.056
15,MRAS (UniProt O14807),inactive: -0.046
16,MORC2 (UniProt Q9Y6X9),inactive: 0.038
17,MON1A (UniProt Q86VX9),inactive: 0.002
18,MR1 (UniProt Q95460),inactive: 0.053
19,MMTAG2 (UniProt Q9BU76),inactive: 0.137
20,MRNIP (UniProt Q6NTE8),inactive: 0.111
21,MLKL (UniProt Q8NB16),inactive: -0.037
22,MITF (UniProt O75030),inactive: 0.074
23,MICAL1 isoform 4 (UniProt Q8TDZ2),inactive: 0.112

# Compound: CC1=C(C(CC(=O)N1)C2=CC=C(C=C2)C(F)(F)F)C(=O)NC3=C(C=C4C(=C3)C=NN4)F
# Assay: as above
# In short: as §1
row,Target,log2 fold change
1,MKRN1 (UniProt Q9UHC7),inactive: -0.048
2,MOB3A (UniProt Q96BX8),inactive: 0.09
3,MICALL1 (UniProt Q8N3F8),inactive: -0.147
4,MNT (UniProt Q99583),inactive: -0.048
5,MKRN3 (UniProt Q13064),inactive: 0.075
6,MRPL42 (UniProt Q9Y6G3),inactive: -0.031
7,MPC1 (UniProt Q9Y5U8),inactive: 0.189
8,MRPL18 (UniProt Q9H0U6),inactive: 0.068
9,MID1IP1 (UniProt Q9NPA3),inactive: -0.022
10,MLLT11 (UniProt Q13015),inactive: 0.083
11,MRAS (UniProt O14807),inactive: 0.022
12,MOSPD1 isoform 3 (UniProt Q9UJG1),inactive: 0.174
13,MMTAG2 (UniProt Q9BU76),inactive: -0.031
14,MRNIP (UniProt Q6NTE8),inactive: 0
15,MKKS (UniProt Q9HB66),inactive: 0.053
16,MICAL1 isoform 4 (UniProt Q8TDZ2),inactive: 0.146
